For 3 molecules, binding results are on record in patent publication US20260242455A1.

The chains behind the UniProt entries cited, without tags or fusion partners. Residues count along the entry.
UniProt O14793, residues 24-375: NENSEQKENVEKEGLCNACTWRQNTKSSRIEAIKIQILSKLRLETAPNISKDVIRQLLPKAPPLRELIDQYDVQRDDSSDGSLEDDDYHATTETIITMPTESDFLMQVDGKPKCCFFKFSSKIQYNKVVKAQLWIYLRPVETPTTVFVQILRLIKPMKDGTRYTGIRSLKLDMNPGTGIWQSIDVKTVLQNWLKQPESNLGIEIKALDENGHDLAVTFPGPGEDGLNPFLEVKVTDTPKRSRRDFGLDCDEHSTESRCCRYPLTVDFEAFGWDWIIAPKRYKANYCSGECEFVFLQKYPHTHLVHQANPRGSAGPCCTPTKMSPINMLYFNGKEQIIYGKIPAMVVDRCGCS

Results are given in words; binding and its absence hold for the method and conditions named. Some results given as binding are weak or reduced against the parent protein; the word gives no strength.

In test [1] the target is pro-myostatin (proGDF8), species not stated in the experiment (UniProt O14793). Briefly: ELISA / Octet.
Test [2] shares this target. In words: Octet, compared with parental Ab1.

B1: Ab8 (antibody, V domains shown)
VH: QIQLVQSGAEVKKPGASVKVSCKASGYTFTSYGISWVRQAPGQGLEWMGWISAYNGNTNYAQKLQGRVTMTTDTSTSTAYMELSSLRSEDTAVYYCARVGFYDYVWGSYPYDAFDIWGQGTMVTVSS
VL: EIVMTQSPGTLSLSPGERATLSCRASQSVSSNYLAWYQQKPGQAPRLLIYDASNRATGIPARFSGSGSGTDFTLTISSLEPEDFALYYCQQYGTSPLTFGGGTKLEIKR
On to B1, for which the binding entry in test [1] is reported as “binds”.

B2: Ab3 (affinity optimized, parental frameworks), IgG4 (S228P) (antibody, V domains shown)
VH: QIQLVQSGGGVVQPGRSLRLSCAASGFAFSSYGMHWVRQAPGKGLEWVAVISYDGSIKYYADSVKGRFTISRDNSKNTLYLQMNSLRAEDTAVYYCARDLLVRFLEWSHKYGMDVWGQGTTVTVSS
VL: QPVLTQPPSASGTPGQRVTISCSGSTSNIGSNTVHWYQQLPGTAPKLLIYSDDQRPSGVPDRFSGSKSGTSASLVISGLQSDDEADYYCAAWDESLNGVFGGGTKLTVL
B2: in test [2], the binding entry was “binds”.

B3: Ab5 (affinity optimized, parental frameworks), IgG4 (S228P) (antibody, V domains shown)
VH: QIQLVQSGGGVVQPGRSLRLSCAASGFAFSSYGMHWVRQAPGKGLEWVAVISYDGNNKYYADSVKGRFTISRDNSKNTLYLQMNSLRAEDTAVYYCARDLLVRFLEWSHKYGMDVWGQGTTVTVSS
VL: QPVLTQPPSASGTPGQRVTISCSGSSSNIGGNTVHWYQQLPGTAPKLLIYSDDQRPSGVPDRFSGSKSGTSASLVISGLQSDDEADYYCAAWDESLNGVFGGGTKLTVL
B3: in test [2], the binding entry is on record as “binds”.
